Chains of the proteins cited; added tags and fusions are not shown. Lines headed by an entry give the natural chain unless they say otherwise; changes in a name come on top.
UniProt P18054: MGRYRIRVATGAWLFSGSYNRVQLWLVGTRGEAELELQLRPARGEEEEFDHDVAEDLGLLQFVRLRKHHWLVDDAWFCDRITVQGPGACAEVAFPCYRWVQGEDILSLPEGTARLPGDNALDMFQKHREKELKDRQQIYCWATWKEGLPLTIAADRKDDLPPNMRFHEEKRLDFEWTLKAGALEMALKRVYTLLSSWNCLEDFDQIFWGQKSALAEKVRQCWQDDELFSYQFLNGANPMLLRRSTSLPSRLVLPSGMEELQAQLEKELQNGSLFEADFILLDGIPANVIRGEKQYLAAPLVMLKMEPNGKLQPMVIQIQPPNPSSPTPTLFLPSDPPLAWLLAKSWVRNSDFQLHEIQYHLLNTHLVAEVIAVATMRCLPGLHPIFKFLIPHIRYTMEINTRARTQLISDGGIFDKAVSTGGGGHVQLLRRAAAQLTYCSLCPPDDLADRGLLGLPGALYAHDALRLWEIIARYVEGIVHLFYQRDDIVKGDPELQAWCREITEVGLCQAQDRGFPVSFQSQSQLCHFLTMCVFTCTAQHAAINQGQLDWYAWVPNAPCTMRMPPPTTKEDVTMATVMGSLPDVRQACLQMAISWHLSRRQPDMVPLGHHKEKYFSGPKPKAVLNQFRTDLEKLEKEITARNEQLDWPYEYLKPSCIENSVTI

Values joined by “and” are separate entries in the source; they are usually repeats but may differ in a detail not shown here. Equal entries are not always repeated. Hit rate of the full screen: of about 580,000 compounds, about 6,100 (1.1%) were called active. Inconclusive results, whose numbers are uncertain, are shown with a selection of clear calls. Calls follow the shape of the dose curve; as a rule, active = well fitted inhibition curve with a large enough effect; inconclusive = small, poorly fitted or top-dose-only effect, or another doubt; inactive = no such curve, though single readings can be large or run the other way. Potencies beside an inconclusive call are fits to weak or partial responses and may not hold up.
These compounds were tested against Polyunsaturated fatty acid lipoxygenase ALOX12 (Homo sapiens) (UniProt P18054) (assay: Primary qHTS assay for inhibitors of human arachidonate 12S-lipoxygenase (ALOX12): Round 2). Details: purified 12hLO, xylenol orange hydroperoxide absorbance; activity change, negative = inhibition: at 108 µM (top of the series) unless noted.
Procedure, shortened: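 Hydroperoxide product was detected by ferrous iron/xylenol orange as the 573 to 405 nm absorbance ratio. Arachidonic acid at 40 uM (final) was turned over for 30 min at room temperature by 150 nM human 12hLO, pH 7.0 Hepes buffer, after 15 min compound preincubation.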
In the case of `CCOc1ccc(C2=CC(c3cccc(Br)c3)n3c(nc4ccccc43)N2)cc1Cl` (configuration not stated), the Potency is reported as inconclusive: 50.1 µM [inhibitor, partial curve, poor fit]. For `NC(=S)N/N=C1\CC(n2nnn(-c3cccc(Cl)c3)c2=S)C2COC1O2` (configuration not stated), the Potency was inconclusive: 7.08 µM [inhibitor, full curve, poor fit]. `COc1ccc(CC(N)c2csc(NC(=O)NCc3ccccc3)n2)cc1` (configuration not stated) was tested, and the Potency was inconclusive: 44.7 µM [inhibitor, single point]. With `Cc1cc(NC(=O)c2cc(-c3cccc(Cl)c3)on2)n(-c2ccccc2)n1` the activity change, negative = inhibition was inconclusive: -35.4% [inhibitor]. With `O=C(Oc1cccc(C(=S)N2CCOCC2)c1)c1ccccc1` the Potency was “inactive”. `Cc1ccc(NC(=O)Cn2nc(C(=O)O)c3ccccc3c2=O)c(Cl)c1` was tested, and the Potency was “inactive”. `CCOC(=O)c1ccccc1NC(=O)c1ccccc1SC` was tested, and the Potency was inconclusive: 44.7 µM [inhibitor, partial curve, poor fit]. `CCN1CCN(Cc2ccc(NC(=O)c3cccc(-c4ccc5nc(NC(=O)C6CC6)sc5n4)c3)cc2C(F)(F)F)CC1` was tested, and the Potency was inconclusive: 112 µM [inhibitor, single point]. In the case of `O=C(c1ccsc1)N1CCC2(CC1)NC(=O)N(Cc1ccc(Cl)cc1)C2=O`, the Potency is reported as inconclusive: 28.2 µM [inhibitor, partial curve]. `CC1CN(C2CCN(C(=O)c3ccccc3Cl)CC2)CC(C)O1` (configuration not stated) was tested, and the Potency was inconclusive: 2.24 µM [inhibitor, full curve, poor fit]. For `CN1CCN(C(=S)c2cn(CCOc3ccccc3F)c3ccccc23)CC1`, the Potency was “inactive”. `CC(=O)[C@@H]1SC(N)=C(C#N)[C@H]1c1cccs1` was tested, and the Potency was inconclusive: 50.1 µM [inhibitor, partial curve, poor fit]. In the case of `CCCCN(C(=O)c1ccc(-c2ccc([N+](=O)[O-])cc2)o1)c1c(N)n(CCCC)c(=O)[nH]c1=O`, the Potency is reported as inconclusive: 56.2 µM [inhibitor, single point]. With `O=C(CC1CCCC1)NCCc1noc(Cc2ccccc2)n1` the Potency was “inactive”. In the case of `C=CCn1c(-c2cccc(S(=O)(=O)N(CC)CC)c2)n[nH]c1=S`, the Potency is reported as inconclusive: 79.4 µM [inhibitor, partial curve, poor fit]. In the case of `CCc1ccc(C(O)(C(C)C)C(CN2CCOCC2)c2ccccc2)cc1` (configuration not stated), the Potency is reported as inconclusive: 39.8 µM [inhibitor, partial curve, poor fit]. With `CCOc1ccc2nc(N(CCCN(C)C)C(=O)c3ccc(S(=O)(=O)N4CCc5ccccc5C4)cc3)sc2c1` the Potency was “inactive”. With `Cc1cccc(OCc2nc(CC(=O)Nc3ccc(C)c(C)c3)cs2)c1` the Potency was inconclusive: 0.355 µM [inhibitor, full curve, poor fit]. For `O=C(Nc1nccs1)C1CCCN1/C=C/C(=O)C(F)(F)F` (configuration not stated), the Potency was inconclusive: 15.8 µM [inhibitor, partial curve, poor fit]. With `Cc1ccc(N2NC(=O)/C(=C/c3ccc(-c4ccc(Cl)c(C(=O)O)c4)o3)C2=O)cc1C` the Potency was inconclusive: 44.7 µM [inhibitor, partial curve, poor fit]. In the case of `COc1ccc(OCc2ccc(C(=O)O)o2)cc1`, the Potency is reported as inconclusive: 35.5 µM [inhibitor, partial curve, poor fit]. For `Cc1cnc(CNc2cc(-c3cccc(C#N)c3)ncn2)cn1`, the Potency was inconclusive: 6.31 µM [inhibitor, full curve, poor fit]. With `O=S1(=O)CC2N=C(N(Cc3c(F)cccc3Cl)c3ccccc3F)SC2C1` (configuration not stated) the Potency was inconclusive: 56.2 µM [inhibitor, partial curve, poor fit]. For `COc1ccc(C(=O)NC2(C(F)(F)F)NC(=O)N(c3ccccc3F)C2=O)cc1` (configuration not stated), the Potency was “inactive”. `O=C(NCc1ccc(F)cc1F)c1noc(-c2ccc3c(c2)OCO3)n1` was tested, and the Potency was inconclusive: 79.4 µM [inhibitor, partial curve]. In the case of `COc1ccc(C(C)(O)c2nc(-c3ccc4ccccc4c3)cs2)cc1` (configuration not stated), the Potency is reported as inconclusive: 100 µM [inhibitor, single point]. For `O=C(O)CCc1ccc(S(=O)(=O)NCc2ccc(F)cc2)cc1`, the Potency was inconclusive: 3.55 µM [inhibitor, full curve, poor fit]. For `N#Cc1ccc(CN2CC3(Cc4ccccc4NC3=O)C2)cc1`, the Potency was inconclusive: 5.01 µM [inhibitor, full curve, poor fit]. In the case of `COC(=O)N/N=C/c1cc(Br)ccc1O`, the Potency is reported as “inactive”. For `O=c1cc(CN2CCN(c3ccccc3)CC2)c2cc(O)c(-c3ccccc3)cc2o1`, the Potency was “inactive”. With `O=C(Cc1cccc(Cl)c1)N1CCC(c2nn(-c3ccccc3)c(=O)[nH]2)CC1` the Potency was “inactive”. In the case of `NS(=O)(=O)c1ccc(CCNC(=O)CNC(=O)c2ccccc2Br)cc1`, the Potency is reported as inconclusive: 126 µM [inhibitor, partial curve, poor fit]. `N#Cc1ccc(S(=O)(=O)N2CCC(C(=O)N3CCN(Cc4ccc5c(c4)OCO5)CC3)CC2)cc1` was tested, and the Potency was “inactive”. For `COC(=O)C(CCSC)NC(=O)C1CCN(c2ncnc3c2nc2n3CCCCC2)CC1` (configuration not stated), the Potency was inconclusive: 89.1 µM [inhibitor, partial curve, poor fit]. For `C=CCOc1nc2c(c(=O)n(C)c(=O)n2C)n1Cc1ccccc1`, the Potency was inconclusive: 44.7 µM [inhibitor, single point] and inconclusive: 17.8 µM [inhibitor, full curve, poor fit]. In the case of `CN(C)c1ncc2nc(-c3cc(F)cc(F)c3)c(=O)n(Cc3cccs3)c2n1`, the Potency is reported as “inactive”. `CCOC(=O)c1c(NC(=O)CCCOc2ccccc2C)sc2c1CCC(C)C2` (configuration not stated) was tested, and the activity change, negative = inhibition was inconclusive: -32.8% [inhibitor]. For `CCOC(CNC(=O)c1ccc2nc(N3CCC(C)CC3)sc2c1)OCC`, the Potency was “inactive”. In the case of `Cc1ccc(CCNC(=O)C2CCN(S(=O)(=O)c3ccc4nc5c(c(C(=O)O)c4c3)CCCC5)CC2)cc1`, the Potency is reported as inconclusive: 50.1 µM [inhibitor, partial curve, poor fit]. With `Fc1ccc(-n2ncc3c(NC4CCCCCC4)ncnc32)cc1` the activity change, negative = inhibition was inconclusive: -64.2% [inhibitor]. `COC(=O)[C@@]1(Cc2ccccc2)[C@H]2C(=O)N(C)C(=O)[C@H]2[C@H]2CN=C(SCc3ccccc3)N21` was tested, and the Potency was inconclusive: 39.8 µM [inhibitor, partial curve]. In the case of `Cc1cc(C)n2nc(C(=O)Nc3cccc(Cl)c3C)nc2n1`, the Potency is reported as “inactive”. `Cc1ccc(NC2=C(Cl)C(=O)OC2OC(=O)c2ccco2)cc1` (configuration not stated) was tested, and the Potency was inconclusive: 126 µM [inhibitor, partial curve, poor fit]. `CN(c1ccccc1)c1ccc2nnc(-c3cc(C(=O)NCCc4ccccc4)ccn3)n2n1` was tested, and the Potency was “inactive”. With `CCCS(=O)(=O)c1cn2cccc(N)c2c1S(=O)(=O)CCC` the Potency was inconclusive: 35.5 µM [inhibitor, full curve, poor fit]. For `CCOC(=O)c1c(CNCCN(CC)CC)n(C)c2cc(Br)c(OC)cc12`, the Potency was inconclusive: 28.2 µM [inhibitor, partial curve, poor fit]. In the case of `COc1ccc2[nH]cc(CCNc3nc(-c4ccccc4CN(C)C)nc4ccccc34)c2c1`, the Potency is reported as inconclusive: 5.62 µM [inhibitor, full curve, poor fit]. `Oc1cc2c(cc1O)C(c1ccccc1)CNCC2` (configuration not stated) was tested, and the Potency was inconclusive: 562 nM [inhibitor, full curve, poor fit] and inconclusive: 14.1 µM [inhibitor, full curve, poor fit]. With `O=C(OCc1nc2ccccc2[n+]([O-])c1C(=O)c1ccccc1)c1cccs1` the Potency was inconclusive: 56.2 µM [inhibitor, partial curve, poor fit]. `CSc1ccccc1NC(=O)CN(C)C(c1ccccc1)c1ccccc1` was tested, and the Potency was “inactive”. For `COc1ccc(/C=C2\Oc3cc(OCC(=O)N4CC(O)C[C@H]4C(=O)O)ccc3C2=O)c(OC)c1OC` (some centres not stated), the Potency was inconclusive: 70.8 µM [inhibitor, partial curve, poor fit]. With `CCOC(=O)N1CCc2c(sc3c2c(=O)n(-c2ccccc2)c(=O)n3CC(=O)Nc2ccc(OC)cc2OC)C1` the Potency was inconclusive: 89.1 µM [inhibitor, partial curve, poor fit]. With `CCN(CC)c1ccc(/C=C(\C#N)C(N)=S)cc1` the Potency was inconclusive: 31.6 µM [inhibitor, partial curve, poor fit]. With `COc1cccc(C(c2nnnn2-c2c(C)cccc2C)N2CCN(C/C=C/c3ccccc3)CC2)c1OC` (configuration not stated) the Potency was inconclusive: 79.4 µM [inhibitor, single point]. `COc1ccc(C(=O)C[n+]2cc(Br)cc3ccccc32)cc1[N+](=O)[O-]` was tested, and the Potency was inconclusive: 6.31 µM [inhibitor, partial curve, poor fit]. For `Cc1cc(C(=O)COC(=O)c2ccco2)c(C)n1Cc1ccco1`, the Potency was “inactive”. For `COc1ccc(OC)c(S(=O)(=O)N[C@H]2CO[C@H]3[C@@H]2OC[C@H]3OC(=O)Nc2ccc(Oc3ccccc3)cc2)c1`, the Potency was inconclusive: 10 µM [inhibitor, full curve]. In the case of `S=C(NCc1ccco1)Nc1ccc(Oc2ccc(Cl)cc2)cc1`, the Potency is reported as inconclusive: 31.6 µM [inhibitor, partial curve, poor fit]. For `CSc1nnc([C@@H]2CCCN2C(=O)OC(C)(C)C)o1`, the Potency was “inactive”. In the case of `COc1ccccc1CNC(=O)CCC[C@H]1NC[C@@H]2C[C@H]1CN(Cc1ccccc1)C2`, the Potency is reported as active: 10 µM. With `O=C(CC1SC(=Nc2cccc3ccccc23)N(Cc2ccccn2)C1=O)Nc1ccccc1Br` (configuration not stated) the Potency was “inactive”. `COc1ccc(C(=O)/C=C/C(=O)N(CC(=O)NC2CCCCC2)Cc2ccc(F)cc2)c(O)c1` was tested, and the Potency was inconclusive: 126 µM [inhibitor, single point].

From PubChem BioAssay AID1671190 (National Center for Advancing Translational Sciences (NCATS), 2021)
% is scaled to controls: 0 for no effect and ±100 for the full control effect; potency is read from the fitted curve at half-maximal effect.
